# Experimental data from article PMC11787194.
# No constants are given. Whether binding was seen depends on the method and setting. Binding seen in cells or lysates may run through a third protein. Binding can be weak; no strength is given.
# Biological target: T1, receptor-interacting protein 3 (RIP3) (rat (endogenous in CTX TNA2 astrocytes)) (UniProt Q9Z2P5)
# T1 sequence: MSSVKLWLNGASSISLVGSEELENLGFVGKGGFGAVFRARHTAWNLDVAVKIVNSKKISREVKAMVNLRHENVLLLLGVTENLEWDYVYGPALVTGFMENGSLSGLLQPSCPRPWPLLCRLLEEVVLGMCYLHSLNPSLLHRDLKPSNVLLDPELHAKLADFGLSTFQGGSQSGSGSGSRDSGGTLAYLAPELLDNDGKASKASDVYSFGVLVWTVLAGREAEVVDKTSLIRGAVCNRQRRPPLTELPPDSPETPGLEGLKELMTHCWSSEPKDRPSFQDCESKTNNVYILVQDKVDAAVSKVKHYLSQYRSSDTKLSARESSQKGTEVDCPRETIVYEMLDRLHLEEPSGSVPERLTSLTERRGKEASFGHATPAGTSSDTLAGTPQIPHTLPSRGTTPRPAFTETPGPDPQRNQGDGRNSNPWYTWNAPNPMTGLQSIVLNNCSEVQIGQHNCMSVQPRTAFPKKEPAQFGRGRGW
# Test: co-IP; cell lysates in IP buffer; anti-RIP3 antibody (1 ug) or normal IgG for 2 h at 4 °C, protein A/G agarose beads overnight at 4 °C; partners detected by immunoblot
row,Substance,binding
1,PML (rat (endogenous in CTX TNA2 astrocytes)),no binding
2,ITCH (rat (endogenous in CTX TNA2 astrocytes)),binds
